From US9662329B2, “Use of survivin antagonists in polyomavirus-related disease” (University of Pittsburgh—Of the Commonwealth System of …, priority 2012, dated 2017)

Test system: MKL-1 cells
Test: MKL-1 cytotoxicity screen (Cell Titer Glo)
Format: cell-based, human
Details: screened at 10^-5 M; 48 hours; cut-off <10% cell survival

SMILES: CC(C)n1nc(-c2cc3cc(O)ccc3[nH]2)c2c(N)ncnc21 [PP242]
- activity in screen (>90% inhibition of MKL-1 cell growth): not active
